Reference: patent US20150337356A1
No constants are given. Whether binding was seen depends on the method and setting. For some of these results: Binding seen in cells or lysates may run through a third protein. Some binding calls cover weakened binding; strength is not graded here.

Protein sequences, listed by entry. Tags and fused reporters are not part of them. Lines headed by an entry give the natural chain unless they say otherwise; changes in a name come on top. Chains listed by the source or under a name are the forms on record and can include a tag or linker. Residues count along the entry.
UniProt O14672, residues 214-748: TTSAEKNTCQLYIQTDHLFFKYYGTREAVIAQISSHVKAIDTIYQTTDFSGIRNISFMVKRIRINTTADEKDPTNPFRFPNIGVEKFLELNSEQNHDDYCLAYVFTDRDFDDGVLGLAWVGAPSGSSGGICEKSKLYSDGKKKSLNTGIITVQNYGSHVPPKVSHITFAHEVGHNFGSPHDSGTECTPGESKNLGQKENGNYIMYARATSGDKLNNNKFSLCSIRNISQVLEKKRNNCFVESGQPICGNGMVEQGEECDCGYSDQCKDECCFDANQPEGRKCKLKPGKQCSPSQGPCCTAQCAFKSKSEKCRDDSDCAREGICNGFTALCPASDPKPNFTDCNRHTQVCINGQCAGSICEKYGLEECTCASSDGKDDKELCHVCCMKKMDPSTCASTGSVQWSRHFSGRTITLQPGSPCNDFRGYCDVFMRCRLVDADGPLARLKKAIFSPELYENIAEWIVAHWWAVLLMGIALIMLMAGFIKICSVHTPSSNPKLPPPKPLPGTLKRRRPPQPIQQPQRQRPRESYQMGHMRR
UniProt P78536: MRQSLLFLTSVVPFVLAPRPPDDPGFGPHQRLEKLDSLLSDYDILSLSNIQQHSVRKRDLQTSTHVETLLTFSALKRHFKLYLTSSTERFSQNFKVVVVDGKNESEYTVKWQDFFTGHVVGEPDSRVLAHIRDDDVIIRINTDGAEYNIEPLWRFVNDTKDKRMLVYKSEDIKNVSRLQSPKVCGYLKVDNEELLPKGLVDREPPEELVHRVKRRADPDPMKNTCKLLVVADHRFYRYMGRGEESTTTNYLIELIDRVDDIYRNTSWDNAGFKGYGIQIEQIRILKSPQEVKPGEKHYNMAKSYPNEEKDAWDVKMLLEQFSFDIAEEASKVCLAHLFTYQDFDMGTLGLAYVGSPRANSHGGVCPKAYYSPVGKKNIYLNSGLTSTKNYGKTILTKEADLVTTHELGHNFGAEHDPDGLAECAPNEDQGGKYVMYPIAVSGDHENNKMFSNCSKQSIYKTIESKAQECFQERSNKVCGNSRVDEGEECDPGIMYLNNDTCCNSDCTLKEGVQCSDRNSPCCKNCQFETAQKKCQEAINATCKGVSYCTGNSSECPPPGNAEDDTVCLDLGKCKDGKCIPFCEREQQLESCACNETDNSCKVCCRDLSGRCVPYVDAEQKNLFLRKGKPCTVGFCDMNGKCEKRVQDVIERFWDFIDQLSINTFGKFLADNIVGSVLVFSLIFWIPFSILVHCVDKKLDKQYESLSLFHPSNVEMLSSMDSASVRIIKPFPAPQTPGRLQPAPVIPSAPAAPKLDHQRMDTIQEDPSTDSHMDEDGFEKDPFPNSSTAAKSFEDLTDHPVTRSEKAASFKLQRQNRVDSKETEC
inactive TACE precursor (135 kD): residues 18-824 of P78536
active form of TACE (95 kD): residues 215-824 of P78536
paxillin (wild type) (P49023, form named): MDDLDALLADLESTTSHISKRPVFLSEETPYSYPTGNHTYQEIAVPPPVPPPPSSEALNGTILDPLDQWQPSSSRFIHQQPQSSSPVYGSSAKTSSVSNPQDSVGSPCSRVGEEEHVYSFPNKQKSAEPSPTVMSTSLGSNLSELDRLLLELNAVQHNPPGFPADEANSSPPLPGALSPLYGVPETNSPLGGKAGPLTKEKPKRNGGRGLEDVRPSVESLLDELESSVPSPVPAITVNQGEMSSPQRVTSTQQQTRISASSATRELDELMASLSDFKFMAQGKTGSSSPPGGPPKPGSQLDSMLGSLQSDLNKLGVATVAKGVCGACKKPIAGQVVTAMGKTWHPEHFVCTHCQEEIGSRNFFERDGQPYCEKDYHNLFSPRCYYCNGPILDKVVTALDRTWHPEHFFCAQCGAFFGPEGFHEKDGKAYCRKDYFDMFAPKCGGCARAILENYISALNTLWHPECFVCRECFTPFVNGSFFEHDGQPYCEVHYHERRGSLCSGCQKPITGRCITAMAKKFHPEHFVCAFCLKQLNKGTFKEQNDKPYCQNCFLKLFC
UniProt O75530: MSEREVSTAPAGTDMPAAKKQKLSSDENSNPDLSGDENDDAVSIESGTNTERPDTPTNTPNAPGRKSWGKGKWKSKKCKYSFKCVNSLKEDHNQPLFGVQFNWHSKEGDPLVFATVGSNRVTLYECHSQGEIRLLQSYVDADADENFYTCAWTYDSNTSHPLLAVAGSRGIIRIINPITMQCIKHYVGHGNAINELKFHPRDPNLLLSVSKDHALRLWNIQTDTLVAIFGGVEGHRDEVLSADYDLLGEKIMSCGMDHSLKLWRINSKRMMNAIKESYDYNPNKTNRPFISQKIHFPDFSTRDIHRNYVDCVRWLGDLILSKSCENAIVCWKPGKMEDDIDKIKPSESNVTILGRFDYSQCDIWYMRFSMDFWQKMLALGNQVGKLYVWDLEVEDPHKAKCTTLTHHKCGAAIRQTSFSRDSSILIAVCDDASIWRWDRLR

Columns and labels:
active form of ADAM10 = active form of ADAM10 (UniProt O14672); experiment: immunoprecipitation of paxillin from melanoma cell lines ML1 and ML3, blot for ADAM10 (FIG. 4C)
[1] = target: active form of TACE (95 kD) (UniProt P78536); experiment: co-immunoprecipitation from 293T cells coexpressing all NAKC components, immunoblot for TACE (FIG. 1E); also seen on immunoprecipitation of endogenous paxillin
[2] = target: inactive TACE precursor (135 kD) (UniProt P78536); experiment: co-immunoprecipitation from transfected 293T cells, immunoblot for TACE (FIG. 1E)
[3] = target: inactive TACE precursor (135 kD) (UniProt P78536); experiment: co-immunoprecipitation (summary of results)

Row | binding (active form of ADAM10) | binding [1] | binding [2] | binding [3] | Substance
1 | binds | binds | – | – | paxillin (wild type) (from UniProt P49023 1-557)
2 | – | – | binds | binds | polycomb protein Eed (from UniProt O75530 1-441)
